The target of this assay is DR5ΔCD (1–240), death receptor 5 without a cytoplasmic domain, fused to EGFP or TagRFP (UniProt O14763). Briefly: FRET or BRET; time-resolved FRET (donor fluorescence lifetime, plate reader) in live HEK293 cells transiently expressing DR5ΔCD-GFP alone or DR5ΔCD-GFP with DR5ΔCD-RFP (1:6), no ligand; cells in PBS, room temperature; also treated with DMSO, bioymifi or nimesulide.

Sequences of proteins named here, by UniProt entry; tags and fusion partners are left off. A change or cut given only in a name is not applied to a line headed by its entry. Residues count along the entry.
UniProt O14763, residues 56-240: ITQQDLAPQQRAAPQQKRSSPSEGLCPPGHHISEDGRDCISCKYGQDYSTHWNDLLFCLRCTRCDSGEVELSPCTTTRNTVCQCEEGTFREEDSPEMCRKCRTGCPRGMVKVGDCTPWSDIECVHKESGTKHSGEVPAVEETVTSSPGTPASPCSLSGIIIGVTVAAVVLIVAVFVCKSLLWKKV

No constants are given. Whether binding was seen depends on the method and setting. Binding seen in cells or lysates may run through a third protein. Some binding calls cover weakened binding; strength is not graded here.

Regarding “DR5ΔCD (1–240), death receptor 5 without a cytoplasmic domain, fused to EGFP or TagRFP (from UniProt O14763 56-240) (domain or fragment)”, the binding result is given as “binds”.

For the origin of these results see PMC9928464.
